“And” between values parts separate entries of the source, which are not always exact repeats. Equal entries are not always repeated. The list shows a part of the results. Further columns of the screen follow, without active or inactive calls. Compounds called inactive in the main read-out are mostly missing here. The note in brackets gives the kind of curve behind each potency; many fits are weak.
Experiment: qHTS Assay for Modulators of Lamin A Splicing
Conditions: HeLa LMNA splicing GFP/RFP minigene ratio, 48 h
How it was run: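 Read-out is the ratio of GFP to DsRed2 object intensity, acquired by 488 nm laser-scanning cytometry on HeLa lamin A-EGFP minigene reporter cells. Compound incubation 48 hrs at 37 °C in Opti-MEM with 2% FBS; DMSO 0.5% final.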

[1] = measured here: RFP viability control channel
[2] = measured here: GFP splicing reporter channel

Row | SMILES | AC50 [1] | AC50 [2]
1 | COc1ccc(C(=O)NCC(c2cccs2)S(=O)(=O)c2ccc(F)c(C)c2)cc1 (stereo unspecified) | 0.0501 µM [falling, full curve, poor fit] | –
2 | COc1cccc(-c2nc(Cc3ccc(OC)c(OC)c3)no2)c1 | 15.8 µM [rising, single point] | –
3 | Cc1cc(NC(=O)CSc2nc(-c3ccco3)cc(C(F)(F)F)n2)no1 | 0.708 µM [rising, full curve, poor fit] | –
4 | COc1cc(Cl)c(C)cc1NC(=O)COc1cc(C)nc(C(C)C)n1 | – | 12.6 µM [rising, single point]
5 | Cc1cc(/C=C2\SC(=S)NC2=O)cc(C)c1O | 22.4 µM [falling, single point] | 35.5 µM [falling, single point]
6 | CCOc1ccc(NC(=O)C2C3CCC4C(CCC32)C4(Cl)Cl)cc1 (stereo unspecified) | – | 0.0316 µM [falling, full curve, poor fit]
7 | CCOc1cc(/C=N\NC(=O)c2ccc(NC(=O)C(C)(C)C)cc2)ccc1OC(=O)c1cccc(C)c1 | 11.2 µM [rising, single point] | 8.91 µM [rising, partial curve, poor fit]
8 | COc1ccc(-c2nc3cnc(OCc4ccccc4)nc3n(CCC#N)c2=O)cc1 | 14.1 µM [falling, single point] | 25.1 µM [falling, single point]
9 | CC1Cc2ccccc2N1C(=O)CSc1nc2ccccc2o1 (stereo unspecified) | 22.4 µM [rising, single point] | 6.31 µM [rising, single point]
10 | NC(=O)C1CCCN1 (stereo unspecified) | – | 0.0891 µM [falling, full curve]
11 | COc1cccc(NC(=O)CN(Cc2ccccc2)S(=O)(=O)c2ccc3nc(C)sc3c2)c1 | 35.5 µM [falling, partial curve, poor fit] | 35.5 µM [falling, single point]
12 | Cc1nnc(SC(C)C(=O)Nc2ccc(S(=O)(=O)NC3CCCCC3)cc2)s1 (stereo unspecified) | 12.6 µM [rising, partial curve, poor fit] | –
13 | COc1ccc(/C=C/C(=O)c2cc(Br)ccc(=O)c2O)cc1 | 20 µM [rising, single point] | –
14 | CN(C)c1ncc2nc(-c3ccc(Cl)cc3)c(=O)n(-c3ccccc3)c2n1 | 15.8 µM [falling, partial curve] | 12.6 µM [falling, partial curve]
15 | COc1ccc(OC)c(-c2nc(C(N)=O)c3c(n2)n(-c2ccc4c(c2)OCO4)c(=O)n3C)c1 | 20 µM [falling, single point] | 20 µM [falling, single point]
16 | CCc1ccc(C2C3=C(CC(C)(C)CC3=O)Nc3c2c(=O)[nH]c2nc(C)nn32)cc1 (stereo unspecified) | 20 µM [falling, single point] | –
17 | NC(=O)c1c(NC(=O)Cc2cccs2)sc2c1CCC2 | 11.2 µM [rising, partial curve, poor fit] | –
18 | CC(Oc1ccc(F)cc1)C(=O)Nc1ccc2ccccc2c1 (stereo unspecified) | 12.6 µM [rising, partial curve, poor fit] | –
19 | CC(Sc1ccccc1)C(=O)NN=C1CCCC1 (stereo unspecified) | 15.8 µM [falling, single point] | 20 µM [falling, partial curve, poor fit]
20 | CCCCc1nn2c(=O)cc(COC(=O)c3cccc(NC(=O)c4cccc(C)c4)c3)nc2s1 | – | 0.794 µM [rising, full curve, poor fit]
21 | Cn1cc(CNCc2cn[nH]c2-c2ccc(F)cc2)c(-c2ccc3c(c2)OCCO3)n1 | 0.00891 µM [falling, full curve, poor fit] | 1.58 µM [falling, partial curve, poor fit]
22 | N#CCSc1nc(Nc2ccc3c(c2)OCO3)c2ccccc2n1 | 10 µM [rising, partial curve, poor fit] | 7.94 µM [rising, partial curve]
23 | O=C(Cc1ccccc1)N/N=C/c1cccc([N+](=O)[O-])c1 | 0.891 µM [rising, full curve, poor fit] | 5.01 µM [rising, partial curve, poor fit]
24 | COc1ccccc1N1CCN(S(=O)(=O)c2cc(C)sc2C)CC1 | 22.4 µM [falling, single point] | 25.1 µM [falling, partial curve]
25 | Cc1csc(Sc2nc3c(c(=O)[nH]c(=O)n3C)n2CCCc2ccccc2)n1 | 1.78 µM [falling, partial curve, poor fit] | –
26 | Cc1nc(N2CCN(Cc3ccccc3)CC2)nc2c1C(=O)CCC2 | 10 µM [rising, partial curve, poor fit] | –
27 | CCCSC1=NC2(CCN(C(=O)NC3CCCCC3)CC2)N=C1c1ccccc1 | 0.0355 µM [falling, full curve, poor fit] | 0.2 µM [falling, full curve]
28 | COc1ccc(OC)c(NC(=O)c2cccc(Cn3cc(Br)c([N+](=O)[O-])n3)c2)c1 | – | 20 µM [rising, single point]

An excerpt of these results, as tab-separated lines:
Row	SMILES	AC50 [1]	AC50 [2]
3	Cc1cc(NC(=O)CSc2nc(-c3ccco3)cc(C(F)(F)F)n2)no1	0.708 µM [rising, full curve, poor fit]	–
4	COc1cc(Cl)c(C)cc1NC(=O)COc1cc(C)nc(C(C)C)n1	–	12.6 µM [rising, single point]
5	Cc1cc(/C=C2\SC(=S)NC2=O)cc(C)c1O	22.4 µM [falling, single point]	35.5 µM [falling, single point]
6	CCOc1ccc(NC(=O)C2C3CCC4C(CCC32)C4(Cl)Cl)cc1 (stereo unspecified)	–	0.0316 µM [falling, full curve, poor fit]
7	CCOc1cc(/C=N\NC(=O)c2ccc(NC(=O)C(C)(C)C)cc2)ccc1OC(=O)c1cccc(C)c1	11.2 µM [rising, single point]	8.91 µM [rising, partial curve, poor fit]
8	COc1ccc(-c2nc3cnc(OCc4ccccc4)nc3n(CCC#N)c2=O)cc1	14.1 µM [falling, single point]	25.1 µM [falling, single point]
9	CC1Cc2ccccc2N1C(=O)CSc1nc2ccccc2o1 (stereo unspecified)	22.4 µM [rising, single point]	6.31 µM [rising, single point]
10	NC(=O)C1CCCN1 (stereo unspecified)	–	0.0891 µM [falling, full curve]
11	COc1cccc(NC(=O)CN(Cc2ccccc2)S(=O)(=O)c2ccc3nc(C)sc3c2)c1	35.5 µM [falling, partial curve, poor fit]	35.5 µM [falling, single point]
12	Cc1nnc(SC(C)C(=O)Nc2ccc(S(=O)(=O)NC3CCCCC3)cc2)s1 (stereo unspecified)	12.6 µM [rising, partial curve, poor fit]	–
13	COc1ccc(/C=C/C(=O)c2cc(Br)ccc(=O)c2O)cc1	20 µM [rising, single point]	–

Next structures follow:

Row | SMILES | AC50 [1] | AC50 [2]
29 | O=C1C(=O)N(C2CCCC2)C(=O)N1Cc1c(F)cccc1Cl | – | 0.251 µM [rising, full curve]
30 | CCOc1cccc(/C=N/NC(=S)Nc2ccccc2[N+](=O)[O-])c1O | 8.91 µM [falling, partial curve, poor fit] | 10 µM [falling, partial curve]
31 | NC12CC3CC(CC(C3)C1)C2 | 15.8 µM [rising, single point] and 4.47 nM [falling, full curve, poor fit] | 0.00398 µM [falling, full curve, poor fit]
32 | Fc1cccc(Cl)c1CNc1n[nH]c(-c2ccco2)n1 | – | 28.2 µM [falling, partial curve]
33 | CC(C)CCNC(=O)c1ccc(Cn2c(SCC(=O)NC(C)C)nc3ccccc3c2=O)cc1 | 35.5 µM [falling, single point] | 31.6 µM [falling, single point]
34 | O=S(=O)(c1ccccc1)c1ncc(C(F)(F)F)cc1Cl | 2.82 µM [falling, single point] | –
35 | COc1ccc(N2CCN(c3nc(NCCc4ccc(OC)c(OC)c4)nc(OC)n3)CC2)cc1 | 11.2 µM [rising, partial curve] | 14.1 µM [rising, partial curve]
36 | Cc1oc2ccc(OCc3ccc(F)cc3)cc2c1C(=O)O | 20 µM [falling, partial curve] | –
37 | CC(=O)Nc1ccc(S(=O)(=O)N2CCSC2c2ccccc2Cl)cc1 (stereo unspecified) | 35.5 µM [rising, single point] | –
38 | FC(F)(F)c1ccccc1-c1ccc2ncnc(NC3CCNCC3)c2c1 | 31.6 µM [rising, single point] | –
39 | CCc1ccc(-n2c(SCC(=O)NC(C)CC)nc3n[nH]c(C)c3c2=N)cc1 (stereo unspecified) | 0.0316 µM [falling, full curve, poor fit] | –
40 | COc1ccc(F)cc1C(=O)C1CCCN(C(=O)Cc2c(C)noc2C)C1 (stereo unspecified) | 0.282 µM [falling, full curve] | –
41 | COc1ccc(S(=O)(=O)N(C)CC(=O)Nc2ccc(C(F)(F)F)cc2)cc1Cl | – | 25.1 µM [rising, single point]
42 | O=S1(=O)CCN(Cc2csc(-c3cccs3)n2)CC1 | 1 µM [falling, partial curve, poor fit] | –
43 | N#C/C(=C\c1ccc(O)c(O)c1)C(=O)c1ccc(O)c(O)c1 | 15.8 µM [rising, single point] | 15.8 µM [falling, single point]
44 | CN(CC(=O)Nc1ccc(Cl)cc1)c1ccc(S(=O)(=O)N2CCCCC2)cc1[N+](=O)[O-] | 12.6 µM [rising, partial curve] | –
45 | CCn1c(=N)n(CCOc2ccc(Br)cc2)c2ccccc21 | – | 25.1 µM [falling, single point]
46 | COc1ccc(COc2ccccc2C(N)=O)cc1F | 14.1 µM [rising, single point] | –
47 | Cc1[nH]n(-c2ccc(Cl)cc2)c(=O)c1/C=N/n1c(C)nc2ccccc2c1=O | 22.4 µM [rising, single point] | –
48 | CC(C)c1ccc2nc(N)sc2c1 | – | 3.16 µM [rising, partial curve, poor fit]
49 | Cc1ccc(C(C)C)cc1C(=O)CC1(O)C(=O)N(C)c2ccccc21 (stereo unspecified) | 12.6 µM [rising, single point] | 10 µM [rising, partial curve]
50 | N#CC1=C(N)C2=CCCC[C@H]2[C@H](c2ccc(Br)cc2)C1(C#N)C#N | 14.1 µM [rising, partial curve] | –
51 | O=C1c2ccccc2C(=O)C1C1=Nc2ccccc2NC(c2ccccc2)C1 (stereo unspecified) | 0.0708 µM [falling, full curve, poor fit] | –
52 | COc1cccc(/C=C/C(=O)c2ccc(C)c([N+](=O)[O-])c2)c1 | – | 35.5 µM [falling, single point]
53 | C=Cn1c(C(=O)O)ccc1-c1ccc(OC)cc1 | 0.0224 µM [rising, full curve, poor fit] | 0.0224 µM [rising, partial curve, poor fit]
54 | Oc1ccc(C2=NNC(=NCc3ccc4c(c3)OCO4)SC2)c(O)c1 | 6.31 µM [rising, partial curve] | –
55 | Cc1c(Cl)cccc1NC(=O)C1CCN(c2ncnc3c2nc2n3CCCCC2)CC1 | 0.0178 µM [falling, full curve, poor fit] | 0.158 µM [falling, full curve]

— PubChem BioAssay AID1487 (National Center for Advancing Translational Sciences (NCATS), 2009)
